PubChem BioAssay AID540276 (National Center for Advancing Translational Sciences (NCATS), 2011)
Screen size: about 300,000 compounds; about 5,400 (1.8%) were called active. The shares of active, inactive and inconclusive entries below differ from those in the screen. Calls come from the whole dose curve; tested in HEK293 cells. A potency beside an inconclusive call is a rough fit, not a confirmed value.

experiment: qHTS for inhibitors of binding or entry into cells for Marburg Virus; settings: Marburg virus pseudotyped entry inhibition, cell reporter; series mostly up to 37.8 µM
Potency is the fitted concentration of half-maximal effect.

Structure (SMILES) | Potency
CCCCn1c(SCC(=O)Nc2cc(C(F)(F)F)cc(C(F)(F)F)c2)nnc1C(CC)N(C)C (centres undefined) | inconclusive: 12.6 µM [inhibitor, single point]
CCOc1ccc(NC(=O)COC(=O)CCN2C(=O)C3CC=CCC3C2=O)cc1OCC (centres undefined) | inactive
CN1CCc2c1nc1ccccc1c2N (tested in a mixture with another compound) | inconclusive: 11.2 µM [inhibitor, partial curve, poor fit]
Cc1noc(C)c1CSCC(=O)Nc1cc(Cl)ccc1N1CCCCC1 | inconclusive: 1 µM [inhibitor, full curve, poor fit]
O=C(COC(=O)c1ccccc1O)NCC1COc2ccccc2O1 (centres undefined) | inconclusive: 20 µM [activator, single point]
COc1ccc(CCN2C(=O)CC(N3CCOCC3)C2=O)cc1OC (centres undefined) | inconclusive: 12.6 µM [activator, partial curve, poor fit]
CCOc1ccccc1OCC(=O)NC1CCCCC1 | inactive
COc1ccc(NS(=O)(=O)c2cc(NC(=O)c3cc(=O)c4ccccc4o3)ccc2OC)cc1 | inactive
Cc1ccc(NC(=O)c2cncc(Br)c2)c([N+](=O)[O-])c1 | inconclusive: 11.2 µM [activator, single point]
COC(=O)c1ccc(NC(=O)CSC2=NC(=O)C(c3ccccc3)C(=O)N2)cc1 (centres undefined) | inconclusive: 3.55 µM [activator, partial curve, poor fit]
COc1cc(NC(=O)Cn2c(=O)n(Cc3ccco3)c(=O)c3sc4ccccc4c32)cc(OC)c1 | inconclusive: 3.16 µM [inhibitor, partial curve, poor fit]
CN(Cc1ccccc1)S(=O)(=O)c1ccc(OCC(=O)NCc2cccnc2)cc1 | inconclusive: 35.5 µM [inhibitor, single point]
CCOc1ccc(Br)cc1S(=O)(=O)Nc1ccccc1N1CCOCC1 | inconclusive: 28.2 µM [inhibitor, single point]
O=C1N(c2ccc3c(c2)OCCO3)C(c2ccccc2)C1(F)F (centres undefined) | inactive
COc1ccc(CCNC(=O)C(C)n2nc(C)c3c(C)n(-c4ccc(C)cc4)nc3c2=O)c(OC)c1 (centres undefined) | inconclusive: 10 µM [inhibitor, partial curve, poor fit]
CC1C/C(=N/N=C2/NC(=O)CS2)CC(C)(C)C1 (centres undefined) | inactive
Cc1ccccc1CCNC(=O)C1CCC(=O)N(Cc2ccc(Cl)cc2)C1 (centres undefined) | inactive
COc1ccc(C2CC(c3cccs3)=NN2C(=O)CSc2nc3ccccc3o2)cc1 (centres undefined) | inactive
Cc1ccccc1C(=O)Nc1ccc(N(C)C)c2ccccc12 | inconclusive: 35.5 µM [activator, single point]

3 compounds out of the list, arranged by count of non-hydrogen atoms, low to high:
Structure (SMILES) | Potency
CN1CCc2c1nc1ccccc1c2N (tested in a mixture with another compound) | inconclusive: 11.2 µM [inhibitor, partial curve, poor fit]
CCOc1ccccc1OCC(=O)NC1CCCCC1 | inactive
COC(=O)c1ccc(NC(=O)CSC2=NC(=O)C(c3ccccc3)C(=O)N2)cc1 (centres undefined) | inconclusive: 3.55 µM [activator, partial curve, poor fit]
